# PubChem BioAssay AID2685 (National Center for Advancing Translational Sciences (NCATS), 2010)
# Some of the results follow. These are further read-outs of the screen, such as a control signal, another cell line or another target. No call is given for them. Most of these compounds were active or inconclusive in the main read-out, so they are no random draw. Potencies come from curve fits of mixed quality, noted in brackets.
# Test: qHTS Assay for Lipid Storage Modulators in Drosophila S3 Cells;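 on cell number change: cells counted by Cell Tracker Red CMTPX staining in the red channel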
# Settings: BODIPY lipid droplet fluorescence, 18-24 h; for cell number change: measured here: cell count max response, cells fed with added oleic acid
# How it was run: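 Drosophila S3 cells loaded with oleic acid (400 uM, as added) and compounds at several concentrations; lipid droplets imaged by 488-nm laser-scanning cytometry, 500–530 nm intensity and object ratio to cell channel. Percent activity normalized to 20 uM Triacsin C.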
# [1] = measured here: lipid fluorescence (Fed channel) AC50, cells fed with added oleic acid
# [2] = measured here: cell number channel AC50, cells fed with added oleic acid
SMILES,cell number change,AC50 [1],AC50 [2]
CN(C)CCCN(C(=O)c1ccc2c(c1)OCCO2)c1nc2ccc(Cl)cc2s1,8.44%,"0.231 µM [rising, full curve]",–
CCC(=O)NC(Nc1ccccn1)(C(=O)OC)C(F)(F)F (stereo not given),-8.14%,"0.259 µM [rising, full curve, poor fit]",–
Cc1ccc(-c2csc(NC(=O)c3c(C)noc3C)n2)cc1C,-12.1%,"29.1 µM [falling, single point]",–
O=C(NNC(=O)c1ccc(-n2cncn2)c([N+](=O)[O-])c1)c1cccc(Cl)c1,35%,–,"6.51 µM [rising, partial curve]"
CCc1noc(C)c1C(=O)Nc1cc(Cl)ccc1N1CCOCC1,40%,"16.4 µM [rising, single point]","23.1 µM [rising, single point]"
FC(F)(F)c1ccccc1C1C2=C(Nc3ncnn31)c1ccccc1CCC2 (stereo not given),-3.99%,"0.82 µM [rising, single point]",–
CCCC(=O)Oc1ccc(C2NC(=O)c3ccccc3O2)cc1 (stereo not given),18.2%,–,–
CCN(Cc1cnn(C)c1)Cc1nc(Cc2ccccc2Cl)no1,6.91%,"29.1 µM [rising, single point]",–
CN(CC(=O)Nc1ccccc1C(F)(F)F)C(=O)c1cc2c(s1)CCCCC2,0.905%,"5.17 µM [falling, single point]",–
c1ccc(-n2ncc3c2ncn2nc(CSc4nc5ccccc5s4)nc32)cc1,-47.4%,"3.26 µM [rising, partial curve, poor fit]","1.84 µM [falling, partial curve]"
COc1ccc(N2CCN(C(=S)Nc3ccccc3OC)CC2)cc1,27.7%,"6.51 µM [rising, single point]","0.00517 µM [rising, full curve, poor fit]"
Cc1cccc(NS(=O)(=O)c2c(C(=O)N3CCCC3)c(C)n(C)c2C)c1,-10.1%,–,–
Nc1cc(C(=O)N/N=C/c2cccc([N+](=O)[O-])c2)n[nH]c1=O,15.2%,"20.6 µM [rising, single point]",–
Cc1ccc(S(=O)(=O)Nc2ccncc2)c(C)c1N(C)S(=O)(=O)c1ccc(F)cc1,–,"0.231 µM [falling, full curve, poor fit]",–
Cc1ccc(Nc2nc(Oc3ccc(=O)[nH]n3)nc(N(C)C)n2)cc1,30.3%,"0.58 µM [rising, single point]","0.651 µM [rising, full curve, poor fit]"
CCCC(=O)Nc1ccccc1N1CCN(C(=O)C(C)C)CC1,-2.51%,"0.0231 µM [rising, full curve, poor fit]",–
O=C(NC1CCCC1)C(c1cccnc1)N(C(=O)c1csnn1)c1ccc(F)cc1 (stereo not given),-26.7%,"6.51 µM [rising, single point]",–
Cc1cc(C)c(NC(=O)Nc2ccccc2)c(C)n1,-3.44%,"0.164 µM [rising, full curve, poor fit]",–

SMILES,cell number change,AC50 [1],AC50 [2]
O=C(CN1C(=O)NC2(CCCCC2)C1=O)Oc1ccc2ccc(=O)oc2c1,-2.2%,"0.326 µM [rising, single point]",–
COc1ccc(N(CC(=O)NCCSC2CCCCC2)S(=O)(=O)c2ccccc2)c(OC)c1,2.05%,"29.1 µM [falling, single point]",–
COCCNC(=S)NC12CC3CC(CC(C3)C1)C2,-11.1%,"3.26 µM [falling, full curve]",–
COc1cccc(C2NC(=O)c3ccccc3O2)c1OC (stereo not given),-10.3%,"29.1 µM [falling, single point]",–
COC(=O)[C@H](CC(C)C)NC(=O)CCc1nnc(COc2ccccc2)o1,–,"8.2 µM [falling, partial curve]",–
CCCCn1c(CNC(=O)C23CC4CC(CC(C4)C2)C3)nnc1SCC(=O)Nc1nnc(C)s1,6.16%,"0.651 µM [falling, full curve]","0.651 µM [falling, full curve, poor fit]"
COc1cc(-n2nnnc2SCC(=O)N2CCN(c3ccc(F)cc3)CC2)c(OC)cc1Cl,–,"18.4 µM [falling, single point]",–
Cc1ccccc1N(C(=O)CNC(=O)c1ccco1)C(C(=O)NC1CCCC1)c1ccncc1 (stereo not given),32.4%,–,"7.31 µM [rising, partial curve]"
COc1ccc(C(=O)/C=C\N2CCOCC2)cc1,26.2%,"4.11 µM [rising, single point]",–
COc1ccc(CCN2C(=O)c3[nH]nc(-c4ccccc4O)c3C2c2cccc(Cl)c2)cc1 (stereo not given),-73%,"16.4 µM [falling, partial curve]","16.4 µM [falling, partial curve, poor fit]"
Cc1nc(S(=O)(=O)Cc2ccccc2)nc2c1CCC2,52.9%,"5.8 µM [falling, single point]","6.51 µM [falling, single point]"
O=C(CNC(=O)c1ccc(-c2ccccc2)cc1)OCc1c(Cl)cccc1Cl,8.45%,"6.51 µM [rising, full curve]",–
O=C(OCC(O)CN1CCCCC1)C12CC3CC(CC(C3)C1)C2 (stereo not given),5.58%,"0.731 µM [rising, single point]",–
Cc1ccc2[nH]c(C(=O)N3CCCC(Nc4ccc(F)cc4)C3)cc2c1 (stereo not given),4.58%,–,–
Cc1ccc(C)c(OCCC(=O)OCC(=O)N(C)c2c(N)n(Cc3ccccc3)c(=O)[nH]c2=O)c1,-38.4%,"6.51 µM [falling, partial curve]","0.00461 µM [falling, full curve, poor fit]"
COC1=C(c2ccccc2)C(=O)c2ccccc2C1=O,-20%,"0.0461 µM [falling, full curve]",–
O=[N+]([O-])c1ccc(S(=O)(=O)N2CCSC2c2ccco2)cc1 (stereo not given),-15.9%,"0.13 µM [falling, full curve, poor fit]","0.13 µM [falling, full curve, poor fit]"
COc1ccc(-c2cc(C(=O)Oc3ccc([N+](=O)[O-])cc3)c3ccccc3n2)cc1,-19.2%,"0.411 µM [falling, full curve]",–

# Molecules from the list above that have a furan ring, fused or not, in the order listed:
SMILES,cell number change,AC50 [1],AC50 [2]
Cc1ccccc1N(C(=O)CNC(=O)c1ccco1)C(C(=O)NC1CCCC1)c1ccncc1 (stereo not given),32.4%,–,"7.31 µM [rising, partial curve]"
O=[N+]([O-])c1ccc(S(=O)(=O)N2CCSC2c2ccco2)cc1 (stereo not given),-15.9%,"0.13 µM [falling, full curve, poor fit]","0.13 µM [falling, full curve, poor fit]"
